Primary screen of a compound library

The chains behind the UniProt entries cited, without tags or fusion partners.
UniProt E9BF75, entry or part of it: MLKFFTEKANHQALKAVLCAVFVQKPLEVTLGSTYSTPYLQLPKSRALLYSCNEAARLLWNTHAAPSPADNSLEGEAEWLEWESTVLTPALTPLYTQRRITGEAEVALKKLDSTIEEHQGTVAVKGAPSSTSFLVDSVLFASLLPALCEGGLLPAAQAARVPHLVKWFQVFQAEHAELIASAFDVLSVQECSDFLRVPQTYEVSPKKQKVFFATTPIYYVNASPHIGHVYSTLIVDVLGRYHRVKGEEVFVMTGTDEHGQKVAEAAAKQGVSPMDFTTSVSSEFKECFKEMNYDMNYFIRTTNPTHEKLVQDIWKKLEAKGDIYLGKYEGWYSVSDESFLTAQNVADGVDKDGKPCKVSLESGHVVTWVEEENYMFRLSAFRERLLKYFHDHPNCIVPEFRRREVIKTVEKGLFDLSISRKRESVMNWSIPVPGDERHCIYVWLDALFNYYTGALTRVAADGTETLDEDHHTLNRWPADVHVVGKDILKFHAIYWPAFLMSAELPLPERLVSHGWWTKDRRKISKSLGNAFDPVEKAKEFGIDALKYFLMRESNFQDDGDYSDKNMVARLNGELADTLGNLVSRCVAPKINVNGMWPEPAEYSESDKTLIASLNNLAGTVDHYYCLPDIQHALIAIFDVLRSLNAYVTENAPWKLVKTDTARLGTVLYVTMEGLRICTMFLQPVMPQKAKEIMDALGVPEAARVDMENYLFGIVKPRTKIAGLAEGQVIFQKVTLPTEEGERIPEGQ

All values are in %. The controls that fix the scale are not given in the record; negative values are as filed. The compounds are a random part of those screened. A dash means the value is not listed here; it may have been measured.

Mtb heat-shock: 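Assay on Mycobacterium tuberculosis, filed only as a heat shock assay from Cornell; the read-out is not stated. The concentration is filed as 10 mM, unlikely as a test dose, so the dose is not known. Higher reads as stronger inhibition (inferred: compounds with an IC50 in retests scored well above the rest). About 69,000 compounds were tested under these conditions; 1.4% (about 930) showed 50% or more at least once.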
Mtb growth Cornell: 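Whole-cell assay for inhibitors of Mycobacterium tuberculosis growth, labelled Cornell in the record; the read-out is not stated. The concentration is filed as 10 mM, unlikely as a test dose, so the dose is not known. Higher means stronger inhibition (inferred from two other growth screens of the library). Size under these conditions: about 53,000 compounds, about 900 of them at 50% or above in at least one test.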
LdMetRS: 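Methionyl-tRNA synthetase (putative), Leishmania donovani (UniProt E9BF75). Primary screen of methionyl-tRNA synthetase; the read-out is not stated. The test concentration is not given. The values are filed as inhibition. Of about 68,000 compounds tested this way, about 24 (0.035%) reached 50% or more in at least one test.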

SMILES	Mtb heat-shock	Mtb growth Cornell	LdMetRS
Cc1ccc(CN(CCN(C)C)Cc2c(C)nc3sccn23)o1	-	-	12.79
CCOc1nnc(CN(CC)CC(=O)Nc2c(F)cccc2F)s1	6.835	2.644	18.05
c1ccc(-c2nnc(CN3CCCC(Cn4cncn4)C3)o2)cc1 (stereo not given)	17.16	-	17.21
COCCn1ccc2c(NC(=O)C(C)C)cccc21	2.518	18.08	15.86
[H][C@@]12C[C@H](C(=O)NC3CC3)CN(Cc3ccco3)[C@]1([H])CCO2	-0.9505	2.048	-
CS(=O)(=O)N1CCN(C(=O)c2cc(-c3ccco3)cs2)CC1	8.656	10.89	22.1
O=C1NC2(CCN(CC3CC3)CC2)CC1c1ccccc1 (stereo not given)	-	-	12.8
CCc1nccn1C1CCCN(C(=O)c2csc(COC)n2)C1 (stereo not given)	9.808	19.86	10.8
COCCN1CCC12CCN(C(=O)c1ccc(C)nc1)C2 (stereo not given)	-	-	9.384
Cc1ccc(C(=O)O)c(N2CC(C)(C)[C@@](C)(O)C2)n1	-10.86	3.695	5.943
Nc1c(N2CCOCC2)ncnc1N1CCOCC1	19.82	-13.96	9.167
COCCN1CCc2ncc(CNc3cc(N(C)C)ncn3)n2CC1	6.047	38.38	15.94
Cc1ccc(S(=O)(=O)N(C)Cc2cnccn2)cc1N(C)C	-5.131	-0.1337	14.29
Cc1ccccc1-n1ncc2c(=O)n(CCN3CCCCC3)cnc21	-13.65	-25.3	10.99
COCCN1CCCC(c2nc(C)n3c(C)c(C)sc23)C1 (stereo not given)	-11.1	6.759	18.01
Cc1ccccc1C(C(=O)NCc1nc(-c2ncccn2)no1)N(C)C (stereo not given)	-18.76	0.1474	7.018
COc1ccc(Oc2ncccc2F)cc1CN1CCCC1	7.757	1.764	8.04
CCc1ccc(CN2Cc3nccn3CC(CN3CCOCC3)C2)o1.O=C(O)C(F)(F)F.O=C(O)C(F)(F)F.O=C(O)C(F)(F)F (stereo not given)	-22.51	-24.56	-
COCC(=O)N1CCC2(CCN(Cc3ccc(C)cc3)CC2)CC1	-	-	9.774
C[C@H]1CN(c2ccccn2)C[C@@]12CCN(c1cccnc1)C2=O	-	-	9.29
COCCN1CCCC(O)(CN2CCCN(c3ncccn3)CC2)C1=O (stereo not given)	-6.265	-	10.44
Cc1nc(CN(CCc2ccccc2)C2CCN(C)CC2)no1	-33.2	5.602	5.025
Cc1ccccc1CN(CC(=O)O)C(=O)COCC1CC1	-15.55	-	4.144
CS(=O)(=O)c1ccccc1N[C@@H]1c2ccccc2C[C@@H]1O	-9.763	-	11.15
Cc1ccc2c(n1)N(CC1CC1)CCN(Cc1ccco1)C2.O=C(O)C(F)(F)F.O=C(O)C(F)(F)F	-11.21	13.67	-
O=C(C1CCCN(Cc2cccnc2)C1)N1CCc2sccc2C1 (stereo not given)	20.4	2.233	9.964
Cc1ccc(C(=O)Oc2cc(=O)n3cccc(C)c3n2)cc1	-19.42	0.2404	1.749
C[C@@H]1CN(CC(C)(C)N2CCOCC2)CC[C@@]1(O)C1CCOCC1	-22.1	-	1.465
CC(=O)N1C[C@@H](c2ccsc2)[C@@H]2CN(Cc3cccc(Cl)c3)CC[C@@H]21	-	-	14.34
Cc1cc(N2CCCC2Cn2nc(C)cc2C)n2ncnc2n1 (stereo not given)	11.78	-13.82	10.21
CCCS(=O)(=O)N1CCCC(CCC(=O)N(C)CCc2ccccn2)C1 (stereo not given)	-17.1	-	1.875
c1cncc(CN2CCC(NCCc3ccc4c(c3)CCO4)CC2)c1	-56.36	-25.89	0.2688
Cn1ccc(C(=O)NC2CCC23CCN(C(=O)c2ccncc2)CC3)c1 (stereo not given)	-	-	13.5
O=C(O)C(F)(F)F.O=C(O)C(F)(F)F.c1cncc(CN2CCn3c(Cn4cncn4)cnc3C2)c1	-5.632	18.79	-
CCn1ncc2c1C(COCC1CC1)N(C(=O)c1ccncn1)CC2 (stereo not given)	-	-	15.22
CC(C)N1CCCC(N2CCOC3(CCCC3)C2)C1=O (stereo not given)	-15.51	-	8.635
COCCNC(=O)c1cc(COc2cncc(Cl)c2)on1	14.87	-	4.545
FC(F)(F)c1ccnc(N2CCCC(N3CCOCC3)C2)c1 (stereo not given)	-24.16	-1.423	3.519
CC(NC(=O)CNCCn1cccn1)c1ccc2c(c1)CCCC2 (stereo not given)	14.39	13.95	14.98
O=C(CCC1CCN(C(=O)c2cc[nH]c2)CC1)NCc1cccc(Cl)c1	15.96	-2.299	9.429
CN(Cc1cnn(C)c1)C(=O)c1ccnc(OC2CCC2)c1	5.517	-27.54	11.41
CCCN(Cc1nc2ccccc2[nH]1)Cc1ccccc1OC	67.04	29.88	9.487
O=C(O)C(F)(F)F.[H][C@@]12C[C@@H](C(=O)N3CCC(C)CC3)CN(Cc3ccoc3)[C@]1([H])CCO2	21.11	-20.89	-
COCCn1nc(C(=O)N(C)Cc2ccc3ccccc3c2)ccc1=O	-15.21	18.5	20.25
O=C(c1cc[nH]n1)N1CCc2ccc(S(=O)(=O)N3CCOCC3)cc2C1	0.4455	28.56	14.64
Cc1cnn(CC2CN(CC(=O)Nc3nnc(C)s3)CCO2)c1 (stereo not given)	2.026	-	13.27
O=C(O)c1ccnc(-c2ccnc(NCCc3cscn3)n2)c1	-4.977	-	6.933
COc1cccc(OCC(=O)NS(=O)(=O)c2ccc(Br)s2)c1	-7.375	-	3.279
Cc1sc(NC(=O)CCC(=O)O)c(C(N)=O)c1-c1ccc(Cl)cc1Cl	6.266	28.86	12.46
COCCN1C(=O)[C@H]2CC[C@@H]1CN(c1nccc(C3CCCC3)n1)C2	-	-	0
CCS(=O)(=O)N1CCC2(CN(c3cc(OC)ncn3)C2)C1	-20.62	5.701	-4.255
O=C(Cn1cc(I)cn1)NCC1CCC1	32.45	6.716	16.91

The first 5 entries again:

| SMILES | Mtb heat-shock | Mtb growth Cornell | LdMetRS |
|---|---|---|---|
| `Cc1ccc(CN(CCN(C)C)Cc2c(C)nc3sccn23)o1` | - | - | 12.79 |
| `CCOc1nnc(CN(CC)CC(=O)Nc2c(F)cccc2F)s1` | 6.835 | 2.644 | 18.05 |
| `c1ccc(-c2nnc(CN3CCCC(Cn4cncn4)C3)o2)cc1` (stereo not given) | 17.16 | - | 17.21 |
| `COCCn1ccc2c(NC(=O)C(C)C)cccc21` | 2.518 | 18.08 | 15.86 |
| `[H][C@@]12C[C@H](C(=O)NC3CC3)CN(Cc3ccco3)[C@]1([H])CCO2` | -0.9505 | 2.048 | - |

Data taken from ChEMBL document CHEMBL3988442, “University of Dundee, Small-Polar-MMV Screening Library” (2021).